This assay deals with BDF1 mice, P388 leukemia ip, median survival T/C. The experiment in a line: NCI In Vivo Anticancer Drug Screen. Data for tumor model P388 Leukemia (intraperitoneal) in B6D2F1 (BDF1) mice. The settings on record: T/C endpoint: median survival time, higher T/C = longer survival. An outline of the steps:
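Each value expresses how treatment altered survival: treated-mouse outcome over vehicle-mouse outcome, both groups bearing the transplanted tumour.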

The mark [1] stands for this setting: dose: 200.0 mg/kg/injection, schedule: Q01DX009 (ip), vehicle: Klucel (hydroxypropylcellulose) (HPC).
The mark [2] stands for this setting: dose: 300.0 mg/kg/injection, schedule: Q01DX009 (ip), vehicle: Klucel (hydroxypropylcellulose) (HPC).
Setting [3] is: dose: 12.5 mg/kg/injection, schedule: Q01DX009 (ip), vehicle: saline with Tween-80.
Where [4] appears, read: dose: 25.0 mg/kg/injection, schedule: Q01DX009 (ip), vehicle: saline with Tween-80.
Where [5] appears, read: dose: 50.0 mg/kg/injection, schedule: Q01DX009 (ip), vehicle: Klucel (hydroxypropylcellulose) (HPC).
Where [6] appears, read: dose: 400.0 mg/kg/injection, schedule: Q04DX003 (ip), vehicle: Klucel (hydroxypropylcellulose) (HPC).
The mark [7] stands for this setting: dose: 100.0 mg/kg/injection, schedule: Q01DX009 (ip), vehicle: saline with Tween-80.
Setting [8] is: dose: 200.0 mg/kg/injection, schedule: Q01DX009 (ip), vehicle: saline with Tween-80.
Where [9] appears, read: dose: 3.13 mg/kg/injection, schedule: Q01DX009 (ip), vehicle: saline with Tween-80.
The mark [10] stands for this setting: dose: 6.25 mg/kg/injection, schedule: Q01DX009 (ip), vehicle: saline with Tween-80.
The mark [11] stands for this setting: dose: 30.0 mg/kg/injection, schedule: Q01DX010 (ip), vehicle: saline.

SMILES strings stand for the structures. The list is a part of this screen's results and no random one: it is rich in T/C values a quarter to a half above the control, in often repeated tests (any T/C) and in doses without a T/C. Other doses and runs of a compound stand elsewhere. T/C: endpoint of the treated group in % of that of the vehicle group. Some doses have a count of surviving animals in place of a T/C: the source holds a T/C of zero for them, seemingly a mark for toxic or unscored doses. Some doses without a T/C left all or most animals alive at the check, yet need not have been tolerated: the source hardly ever lists a survival T/C far under the control, and the zero likely stands for such cases as well. Survivors were counted at the toxicity check, usually on the fifth day, unless a day is given; later deaths do not show. Schedules are NCI's codes, taken here to give the interval after Q, in days (D) or hours (H), and the number of doses after X. Where survival is the endpoint, this PubChem deposit counts one and a half times the control or more as active, and values a quarter to a half above the control carry no call in these data; other NCI protocols may use other cut-offs. Some entries were tested several times; the values are given in rising order. Some T/C values carry the count of animals alive at the toxicity check (mostly the fifth day); where none is given, no animal had died by that day.

`Cc1cccc(N=P(c2ccccc2)(c2ccccc2)c2ccccc2)c1`: the T/C under setting [1] was 131 % of control [5 of 6 alive]. Further, the survivor count under setting [2] is listed as 3 of 6.

Turning to `CC(=O)OC(C)C1C2=C(C(=O)CC1(C)O)C(=O)c1c(ccc(-c3ccc4c(c3O)C(=O)C3=C(C4=O)C(C(C)OC(C)=O)C(C)(O)CC3=O)c1O)C2=O` (configuration not stated), the T/C under setting [3] is 128 % of control [5 of 6 alive]. In addition, under setting [4], the survivor count was 3 of 6.

`O=C1C(Cl)=C(Cl)C(=O)c2ccccc21`: the survivor count under setting [5] was 6 of 6.

In the case of `CCOP(=O)(N1CC1(C)C)N1CC1(C)C` (configuration not stated), under “dose: 100.0 mg/kg/injection, schedule: Q04DX003 (ip), vehicle: alcohol”, the T/C was 145 % of control. Also, for the setting “dose: 200.0 mg/kg/injection, schedule: Q04DX003 (ip), vehicle: alcohol”, the survivor count is listed as 3 of 6.

For `c1ccc(CNCCN(Cc2ccccc2)Cc2ccccc2)cc1`, the T/C (dose: 25.0 mg/kg/injection, schedule: Q01DX009 (ip), vehicle: water) was 133 % of control [5 of 6 alive]. Also, under “dose: 50.0 mg/kg/injection, schedule: Q01DX009 (ip), vehicle: water”, the survivor count is on record as 3 of 6.

On to `N#Cc1ccccc1NN=Nc1ccccc1-c1nc(N)nc(N)n1`, for which the T/C by setting is: (dose: 12.0 mg/kg/injection, schedule: Q01DX009 (ip), vehicle: other) 127 % of control; (dose: 25.0 mg/kg/injection, schedule: Q01DX009 (ip), vehicle: other) 127 % of control; (dose: 50.0 mg/kg/injection, schedule: Q01DX009 (ip), vehicle: other) 136 % of control; under setting [1], 138 % of control. Also, the survivor count (dose: 25.0 mg/kg/injection, schedule: Q01DX009 (ip), vehicle: Klucel (hydroxypropylcellulose) (HPC)) is 5 of 6.

For the molecule `COc1ccc(CNc2ncccn2)cc1`, the survivor count was 6 of 6 (dose: 100.0 mg/kg/injection, schedule: Q01DX009 (ip), vehicle: Klucel (hydroxypropylcellulose) (HPC)); 6 of 6 (dose: 400.0 mg/kg/injection, schedule: Q01DX009 (ip), vehicle: Klucel (hydroxypropylcellulose) (HPC)); 6 of 6 under setting [6].

On to `CSc1cc(-c2ccc(Cl)cc2)s[s+]1`, for which the survivor count is, setting by setting: under setting [7], 0 of 6; (dose: 100.0 mg/kg/injection, schedule: Q04DX003 (ip), vehicle: saline with Tween-80) 1 of 6; (dose: 200.0 mg/kg/injection, schedule: Q04DX003 (ip), vehicle: saline with Tween-80) 0 of 6.

As for `Cc1ccc2c(NCCCCCCCCNc3c4ccccc4nc4cc(C)ccc34)c3ccccc3nc2c1`, the T/C by setting is: (dose: 0.63 mg/kg/injection, schedule: Q01DX009 (ip), vehicle: water) 131 % of control; (dose: 1.25 mg/kg/injection, schedule: Q01DX009 (ip), vehicle: water) 144 % of control; (dose: 2.5 mg/kg/injection, schedule: Q01DX009 (ip), vehicle: water) 146 % of control; (dose: 5.0 mg/kg/injection, schedule: Q01DX009 (ip), vehicle: water) 140 % of control. Besides, for the setting “dose: 10.0 mg/kg/injection, schedule: Q01DX009 (ip), vehicle: water”, the survivor count is reported as 5 of 6.

Take `Clc1ccc(C2(C3CCNCC3)CCCO2)cc1` (configuration not stated): under setting [8], the survivor count was 0 of 6.

As for `O=C(O)CCc1c[nH]c2ccc(N(CCCl)CCCl)cc12`, the T/C (dose: 0.15 mg/kg/injection, schedule: Q04DX003 (ip), vehicle: saline with Tween-80) was 127 % of control; the T/C (dose: 0.3 mg/kg/injection, schedule: Q04DX003 (ip), vehicle: saline with Tween-80) was 136 % of control; the T/C (dose: 0.33 mg/kg/injection, schedule: Q04DX003 (ip), vehicle: saline with Tween-80) was 141 % of control. Further, where the note is “dose: 2.0 mg/kg/injection, schedule: Q04DX003 (ip), vehicle: saline”, the survivor count is given as 6 of 6.

As to `CC[CH2][Pb]([CH2]CC)([CH2]CC)[O]C(=O)C(Cl)(Cl)Cl`, under setting [4], the survivor count was 0 of 6.

Turning to `CC(C)(C)CC(Cl)Cl`, the survivor count under setting [2] is listed as 2 of 6.

Turning to `C=CCCCCCCCCCCCCCCCC` (tested in a mixture with another compound), the T/C is 128 % of control (dose: 100.0 mg/kg/injection, schedule: Q01DX009 (ip), vehicle: other) and 136 % of control (dose: 200.0 mg/kg/injection, schedule: Q01DX009 (ip), vehicle: other).

In the case of `BrCCC[P+](c1ccccc1)(c1ccccc1)c1ccccc1`, the T/C under setting [9] is 131 % of control; the T/C under setting [10] was 145 % of control; the T/C (dose: 7.5 mg/kg/injection, schedule: Q01DX010 (ip), vehicle: saline) was 127 % of control. The survivor count by setting is: (dose: 30.0 mg/kg/injection, schedule: Q01DX009 (ip), vehicle: saline) 5 of 6; under setting [11], 6 of 6; (dose: 60.0 mg/kg/injection, schedule: Q01DX010 (ip), vehicle: saline) 0 of 6.

Regarding `Nc1c(Br)cc2c(c1Br)Cc1cc(Br)ccc1-2`, the survivor count (dose: 400.0 mg/kg/injection, schedule: Q01DX009 (ip), vehicle: saline with Tween-80) was 6 of 6.

Regarding `COC1=CC(=O)C(Cl)=C(OC)C1=O`, the survivor count is, setting by setting: under setting [10], 5 of 6; under setting [3], 0 of 6.

With `C[C@]1(O)CC[C@H]2[C@@H]3CCC4=CC(=O)CCC4=C3C=C[C@@]21C`, the survivor count runs as follows: under setting [5], 6 of 6; under setting [6], 1 of 6.

With `ClC1OCCOC1Cl` (configuration not stated), the survivor count is reported as 6 of 6 (dose: 100.0 mg/kg/injection, schedule: Q01DX009 (ip), vehicle: saline) and 3 of 6 (dose: 200.0 mg/kg/injection, schedule: Q04DX003 (ip), vehicle: saline).

As for `[Au].c1ccc(-c2nn[nH]n2)cc1.c1ccc(P(c2ccccc2)c2ccccc2)cc1`, the T/C was 126 % of control under setting [9], 125 % of control under setting [10], 126 % of control under setting [3] and 131 % of control [5 of 6 alive] under setting [4].

In the case of `CCCCCCCCCCCCCC(=O)O[C@@H]1[C@@H](C)[C@@]2(O)[C@@H](C=C(CO)C[C@]3(OC)C(=O)C(C)=C[C@@H]23)[C@@H]2C(C)(C)[C@]12OC(C)=O`, the survivor count is, setting by setting: (dose: 0.03 mg/kg/injection, schedule: Q01DX009 (ip), vehicle: Klucel (hydroxypropylcellulose) (HPC)) 6 of 6; (dose: 25.0 micrograms/kg/injection, schedule: Q01DX009 (ip), vehicle: gum acacia) 4 of 4.

As for `COCCn1c2nc(=O)n(-c3ccccc3)c(=O)c-2nc2ccccc21`, the survivor count (dose: 50.0 mg/kg/injection, schedule: Q01DX009 (ip), vehicle: saline with Tween-80) is given as 5 of 6; the survivor count under setting [7] is 0 of 6; the survivor count under setting [8] is on record as 0 of 6.

As for `CN(C)[C@@H]1C(=O)C(C(N)=O)=C(O)[C@@]2(O)C(=O)C3=C(O)c4c(O)cccc4C[C@H]3C[C@@H]12`, the T/C was 127 % of control (dose: 15.0 mg/kg/injection, schedule: Q01DX010 (ip), vehicle: water); 135 % of control [5 of 6 alive] under setting [11]; 127 and 136 % of control (dose: 30.0 mg/kg/injection, schedule: Q01DX010 (ip), vehicle: water). Moreover, the survivor count is recorded as 6 of 6 (dose: 45.0 mg/kg/injection, schedule: Q01DX010 (ip), vehicle: water); 5 of 6 (dose: 60.0 mg/kg/injection, schedule: Q01DX010 (ip), vehicle: water); 0 of 6 (dose: 75.0 mg/kg/injection, schedule: Q01DX010 (ip), vehicle: water).

(Values after PubChem BioAssay AID328 (DTP/NCI, 2004).)
